Measurements reported in PubChem BioAssay AID1259308 (NCATS, 2017)
The deposit covers about 59,000 reagents; this is a part drawn at random. About 1,510 of all reagents (2.6%) were called active. 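Calls use total luciferase alone and ignore viability, so some active siRNAs may act by altering cell number.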 Entries without a mark were called inactive. Reagents against one gene are numbered here. Further read-outs or replicates are left out here.

Assay: 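Candidate targets for better recombinant protein yield in mammalian cells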 (primary screen)
System: human HEK293 embryonic kidney cells stably expressing firefly luciferase (HEK-CMV-Luc2-Hygro)
Knock-down reagent: single siRNA against human genes, 0.8 pmol siRNA per well
Time to read-out: 72 h
Detection: 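Reporter luminescence and viable-cell signal on separate replicate plates, given as percent of non-targeting control and median/MAD z-scores, plus per-cell luciferase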
Scale: total luciferase, z-score: higher = more reporter protein produced
Rule for the call: 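Active when the median/MAD z-score for overall luciferase is greater than 3; a gene was taken forward for validation with new siRNAs if at least two of its three siRNAs passed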
Meaning of the calls: active = raised luciferase; inactive = no rise

| target | reagent no. | total luciferase, z-score |
| --- | --- | --- |
| CLDN4 (claudin 4) | 1 | -0.0297 |
| CLDN4 (claudin 4) | 2 | 2.04 |
| CLDN4 (claudin 4) | 3 | -0.644 |
| MYH6 (myosin heavy chain 6) | 1 | 0.427 |
| MYH6 (myosin heavy chain 6) | 2 | -0.684 |
| MYH6 (myosin heavy chain 6) | 3 | -0.586 |
| MORC3 (MORC family CW-type zinc finger 3) | 1 | -0.0984 |
| MORC3 (MORC family CW-type zinc finger 3) | 2 | -1.19 |
| MORC3 (MORC family CW-type zinc finger 3) | 3 | 0.943 |
| SLC22A25 | 1 | -0.65 |
| SLC22A25 | 2 | -1.08 |
| SLC22A25 | 3 | 1.29 |
| GCN1 (GCN1 activator of EIF2AK4) | 1 | -1.19 |
| GCN1 (GCN1 activator of EIF2AK4) | 2 | 0.309 |
| GCN1 (GCN1 activator of EIF2AK4) | 3 | -0.65 |
| MYH13 (myosin heavy chain 13) | 1 | -1.49 |
| MYH13 (myosin heavy chain 13) | 2 | -0.146 |
| MYH13 (myosin heavy chain 13) | 3 | 0.61 |
| KBTBD8 (kelch repeat and BTB domain containing 8) | 1 | 0.0466 |
| KBTBD8 (kelch repeat and BTB domain containing 8) | 2 | 1.49 |
| KBTBD8 (kelch repeat and BTB domain containing 8) | 3 | -1.66 |
| DTD1 (D-aminoacyl-tRNA deacylase 1) | 1 | -0.102 |
| DTD1 (D-aminoacyl-tRNA deacylase 1) | 2 | -1.79 |
| DTD1 (D-aminoacyl-tRNA deacylase 1) | 3 | -1.73 |
| NEK8 (NIMA related kinase 8) | 1 | -0.33 |
| NEK8 (NIMA related kinase 8) | 2 | 1.34 |
| NEK8 (NIMA related kinase 8) | 3 | -0.142 |
| CAMKMT (calmodulin-lysine N-methyltransferase) | 1 | 2.71 |
| CAMKMT (calmodulin-lysine N-methyltransferase) | 2 | 0.0319 |
| CAMKMT (calmodulin-lysine N-methyltransferase) | 3 | -0.535 |
| CT47C1 (cancer/testis antigen family 47 member C1) | 1 | -1.1 |
| CT47C1 (cancer/testis antigen family 47 member C1) | 2 | -0.518 |
| CT47C1 (cancer/testis antigen family 47 member C1) | 3 | 2.45 |
| MISP (mitotic spindle positioning) | 1 | 0.158 |
| MISP (mitotic spindle positioning) | 2 | 1.86 |
| MISP (mitotic spindle positioning) | 3 | -0.497 |
| COG3 (component of oligomeric golgi complex 3) | 1 | 0.159 |
| COG3 (component of oligomeric golgi complex 3) | 2 | -0.138 |
| COG3 (component of oligomeric golgi complex 3) | 3 | -2.1 |
| NKX3-1 (NK3 homeobox 1) | 1 | 0.0372 |
| NKX3-1 (NK3 homeobox 1) | 2 | -0.232 |
| NKX3-1 (NK3 homeobox 1) | 3 | 0.114 |
| POLR2B (RNA polymerase II subunit B) | 1 | -3.43 |
| POLR2B (RNA polymerase II subunit B) | 2 | -1.31 |
| POLR2B (RNA polymerase II subunit B) | 3 | -3.2 |
| ANKRD54 (ankyrin repeat domain 54) | 1 | 2.02 |
| ANKRD54 (ankyrin repeat domain 54) | 2 | 0.0472 |
| ANKRD54 (ankyrin repeat domain 54) | 3 | 1.24 |
| PSMB6 (proteasome 20S subunit beta 6) | 1 | -1.2 |
| PSMB6 (proteasome 20S subunit beta 6) | 2 | 0.785 |
| PSMB6 (proteasome 20S subunit beta 6) | 3 | -0.0634 |
| PERM1 (PPARGC1 and ESRR induced regulator, muscle 1) | 1 | 0.112 |
| PERM1 (PPARGC1 and ESRR induced regulator, muscle 1) | 2 | 0.527 |
| PERM1 (PPARGC1 and ESRR induced regulator, muscle 1) | 3 | 0.442 |
| TAS2R7 (taste 2 receptor member 7) | 1 | -1.31 |
| TAS2R7 (taste 2 receptor member 7) | 2 | 0.185 |
| TAS2R7 (taste 2 receptor member 7) | 3 | -0.409 |
